Some of the results follow.
Legend:
Assay in all cases: log2 fold change, soluble protein after heating vs DMSO (PISA); higher = thermal stabilisation; K562 cells, 10 uM, 30 min; active = over 0.2 and 3.5 SD of the protein, either way, in both replicates (recomputed)
[1] = compound: COC1=CC=C(C=C1)CN2C=CC3=C2C=C(C=C3)C(=O)NO
Summary of the method: (§1)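 For each measurement, 10 μM compound was applied for 30 min to K562 cells at 2×10^6 cells/mL. Aliquots were heated for 3 min across 48°C-58°C, pooled, and extracted in PBS with 0.5% NP-40 at 4°C; the supernatant after 21,000xg for 90 min was soluble protein. This was quantified by TMTpro 16plex LC-MS/MS with channel sums equalised, and thermal stability was reported relative to control samples from duplicates, on a log2 fold-change scale.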

Amino acid sequences for entries named in this document (tags omitted). A change or cut given only in a name is not applied to a line headed by its entry.
UniProt P04632: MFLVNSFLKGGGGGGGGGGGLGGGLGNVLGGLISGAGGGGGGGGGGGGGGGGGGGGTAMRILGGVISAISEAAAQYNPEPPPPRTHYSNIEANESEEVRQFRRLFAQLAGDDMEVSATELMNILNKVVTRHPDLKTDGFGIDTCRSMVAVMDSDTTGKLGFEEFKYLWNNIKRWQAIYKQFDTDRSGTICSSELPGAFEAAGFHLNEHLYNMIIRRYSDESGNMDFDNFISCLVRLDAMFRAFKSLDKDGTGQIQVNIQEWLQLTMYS
UniProt Q6ZSJ8: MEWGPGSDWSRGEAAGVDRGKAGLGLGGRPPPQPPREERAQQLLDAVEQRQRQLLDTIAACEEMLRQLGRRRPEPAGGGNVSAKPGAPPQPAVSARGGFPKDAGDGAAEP
UniProt Q9NZ63: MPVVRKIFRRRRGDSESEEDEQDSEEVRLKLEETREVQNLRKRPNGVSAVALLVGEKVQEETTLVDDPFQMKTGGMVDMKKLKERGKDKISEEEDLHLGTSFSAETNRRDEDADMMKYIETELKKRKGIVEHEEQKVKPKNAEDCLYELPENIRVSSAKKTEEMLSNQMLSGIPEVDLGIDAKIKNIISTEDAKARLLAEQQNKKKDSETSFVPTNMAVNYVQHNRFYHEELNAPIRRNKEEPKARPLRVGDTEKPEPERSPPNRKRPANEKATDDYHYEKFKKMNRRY
UniProt Q9NX04: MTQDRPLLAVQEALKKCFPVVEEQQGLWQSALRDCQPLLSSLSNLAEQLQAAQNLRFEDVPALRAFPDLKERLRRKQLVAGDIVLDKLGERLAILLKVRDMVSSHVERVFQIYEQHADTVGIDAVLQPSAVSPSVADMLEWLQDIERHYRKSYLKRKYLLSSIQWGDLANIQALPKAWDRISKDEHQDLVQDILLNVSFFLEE
UniProt P17655: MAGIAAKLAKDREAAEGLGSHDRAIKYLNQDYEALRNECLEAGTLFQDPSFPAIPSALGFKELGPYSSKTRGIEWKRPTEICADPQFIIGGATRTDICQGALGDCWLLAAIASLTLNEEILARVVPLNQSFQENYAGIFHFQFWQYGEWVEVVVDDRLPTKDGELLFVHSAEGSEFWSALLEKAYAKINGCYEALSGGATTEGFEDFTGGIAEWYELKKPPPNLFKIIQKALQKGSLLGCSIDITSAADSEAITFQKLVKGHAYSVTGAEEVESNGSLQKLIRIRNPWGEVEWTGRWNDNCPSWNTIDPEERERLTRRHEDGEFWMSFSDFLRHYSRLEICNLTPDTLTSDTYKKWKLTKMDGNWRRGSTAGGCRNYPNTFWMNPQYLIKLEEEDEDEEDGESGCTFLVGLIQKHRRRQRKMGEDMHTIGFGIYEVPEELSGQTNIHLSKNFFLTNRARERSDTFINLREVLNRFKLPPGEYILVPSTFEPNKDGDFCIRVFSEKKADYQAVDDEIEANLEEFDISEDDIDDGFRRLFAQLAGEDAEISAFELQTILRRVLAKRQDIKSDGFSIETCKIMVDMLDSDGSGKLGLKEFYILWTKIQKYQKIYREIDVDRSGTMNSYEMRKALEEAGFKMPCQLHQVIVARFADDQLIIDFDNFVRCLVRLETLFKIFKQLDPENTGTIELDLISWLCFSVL
UniProt Q86YS7: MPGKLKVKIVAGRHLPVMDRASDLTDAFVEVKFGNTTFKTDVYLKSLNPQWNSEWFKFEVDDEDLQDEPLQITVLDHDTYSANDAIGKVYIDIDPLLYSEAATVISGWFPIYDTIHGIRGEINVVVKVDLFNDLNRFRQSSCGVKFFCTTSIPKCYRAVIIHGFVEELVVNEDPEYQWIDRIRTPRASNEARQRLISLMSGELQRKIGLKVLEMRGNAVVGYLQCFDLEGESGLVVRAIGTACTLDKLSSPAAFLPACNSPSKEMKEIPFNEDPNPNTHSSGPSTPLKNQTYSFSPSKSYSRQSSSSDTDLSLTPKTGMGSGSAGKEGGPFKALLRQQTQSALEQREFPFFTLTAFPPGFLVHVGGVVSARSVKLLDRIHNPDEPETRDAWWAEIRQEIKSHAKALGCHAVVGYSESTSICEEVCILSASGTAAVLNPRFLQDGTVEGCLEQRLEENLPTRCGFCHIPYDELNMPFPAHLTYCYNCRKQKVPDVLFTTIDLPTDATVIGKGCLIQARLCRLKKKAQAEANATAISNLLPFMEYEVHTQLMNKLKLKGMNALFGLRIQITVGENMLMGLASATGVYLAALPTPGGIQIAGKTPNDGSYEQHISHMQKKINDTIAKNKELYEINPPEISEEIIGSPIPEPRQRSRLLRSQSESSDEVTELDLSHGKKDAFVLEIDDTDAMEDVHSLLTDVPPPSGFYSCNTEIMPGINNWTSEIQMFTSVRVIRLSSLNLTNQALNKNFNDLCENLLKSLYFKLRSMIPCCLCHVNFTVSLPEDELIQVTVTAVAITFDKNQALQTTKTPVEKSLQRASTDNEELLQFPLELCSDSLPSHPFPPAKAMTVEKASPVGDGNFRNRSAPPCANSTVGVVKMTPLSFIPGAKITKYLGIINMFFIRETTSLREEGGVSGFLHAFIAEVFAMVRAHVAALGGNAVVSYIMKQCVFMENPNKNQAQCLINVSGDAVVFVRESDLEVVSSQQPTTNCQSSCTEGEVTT
UniProt Q8N6N3: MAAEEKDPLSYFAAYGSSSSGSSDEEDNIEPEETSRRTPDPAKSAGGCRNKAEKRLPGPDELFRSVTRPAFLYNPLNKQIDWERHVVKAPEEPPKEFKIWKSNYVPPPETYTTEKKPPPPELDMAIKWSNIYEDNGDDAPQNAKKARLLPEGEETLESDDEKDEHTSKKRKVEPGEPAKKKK
UniProt O75155: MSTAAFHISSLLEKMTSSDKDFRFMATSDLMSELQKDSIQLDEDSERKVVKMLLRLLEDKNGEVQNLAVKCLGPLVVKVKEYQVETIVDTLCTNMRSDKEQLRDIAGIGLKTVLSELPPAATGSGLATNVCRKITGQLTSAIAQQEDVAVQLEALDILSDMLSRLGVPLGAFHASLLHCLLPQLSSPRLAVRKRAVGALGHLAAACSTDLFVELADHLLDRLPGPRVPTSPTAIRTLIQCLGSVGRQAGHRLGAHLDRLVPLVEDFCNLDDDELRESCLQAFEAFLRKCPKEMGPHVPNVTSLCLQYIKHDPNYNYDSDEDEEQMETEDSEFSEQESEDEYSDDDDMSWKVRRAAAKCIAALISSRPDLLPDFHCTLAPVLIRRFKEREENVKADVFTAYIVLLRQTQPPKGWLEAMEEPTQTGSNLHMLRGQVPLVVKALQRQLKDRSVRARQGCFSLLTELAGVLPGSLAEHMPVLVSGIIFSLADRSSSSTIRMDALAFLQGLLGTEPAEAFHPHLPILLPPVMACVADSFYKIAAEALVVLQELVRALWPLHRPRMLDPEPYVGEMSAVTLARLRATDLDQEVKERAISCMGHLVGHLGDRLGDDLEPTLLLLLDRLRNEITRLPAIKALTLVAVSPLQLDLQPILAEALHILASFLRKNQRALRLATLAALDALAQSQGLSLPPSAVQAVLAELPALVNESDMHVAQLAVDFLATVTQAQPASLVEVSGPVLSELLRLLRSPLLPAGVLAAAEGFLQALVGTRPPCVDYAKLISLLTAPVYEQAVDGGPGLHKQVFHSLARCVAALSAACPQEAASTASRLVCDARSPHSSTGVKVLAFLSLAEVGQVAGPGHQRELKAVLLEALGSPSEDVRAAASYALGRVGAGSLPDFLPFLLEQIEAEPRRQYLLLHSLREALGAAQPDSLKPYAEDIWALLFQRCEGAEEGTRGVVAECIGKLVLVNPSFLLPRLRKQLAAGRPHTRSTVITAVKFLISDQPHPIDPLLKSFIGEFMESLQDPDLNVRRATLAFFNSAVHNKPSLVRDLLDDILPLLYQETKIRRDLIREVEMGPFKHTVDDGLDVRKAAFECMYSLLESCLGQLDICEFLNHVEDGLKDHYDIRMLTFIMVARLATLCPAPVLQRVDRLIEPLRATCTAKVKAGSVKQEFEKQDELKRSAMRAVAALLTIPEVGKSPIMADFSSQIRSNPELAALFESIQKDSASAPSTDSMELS
UniProt P49069: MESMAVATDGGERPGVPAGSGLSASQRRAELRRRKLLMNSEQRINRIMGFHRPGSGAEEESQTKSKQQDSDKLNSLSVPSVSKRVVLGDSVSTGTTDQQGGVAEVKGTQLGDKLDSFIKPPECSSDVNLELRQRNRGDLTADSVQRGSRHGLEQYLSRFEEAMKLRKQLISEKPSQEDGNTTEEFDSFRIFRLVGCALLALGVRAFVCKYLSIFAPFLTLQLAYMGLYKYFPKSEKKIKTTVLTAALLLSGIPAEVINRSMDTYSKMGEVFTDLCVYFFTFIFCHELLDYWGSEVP
UniProt Q9Y6W3: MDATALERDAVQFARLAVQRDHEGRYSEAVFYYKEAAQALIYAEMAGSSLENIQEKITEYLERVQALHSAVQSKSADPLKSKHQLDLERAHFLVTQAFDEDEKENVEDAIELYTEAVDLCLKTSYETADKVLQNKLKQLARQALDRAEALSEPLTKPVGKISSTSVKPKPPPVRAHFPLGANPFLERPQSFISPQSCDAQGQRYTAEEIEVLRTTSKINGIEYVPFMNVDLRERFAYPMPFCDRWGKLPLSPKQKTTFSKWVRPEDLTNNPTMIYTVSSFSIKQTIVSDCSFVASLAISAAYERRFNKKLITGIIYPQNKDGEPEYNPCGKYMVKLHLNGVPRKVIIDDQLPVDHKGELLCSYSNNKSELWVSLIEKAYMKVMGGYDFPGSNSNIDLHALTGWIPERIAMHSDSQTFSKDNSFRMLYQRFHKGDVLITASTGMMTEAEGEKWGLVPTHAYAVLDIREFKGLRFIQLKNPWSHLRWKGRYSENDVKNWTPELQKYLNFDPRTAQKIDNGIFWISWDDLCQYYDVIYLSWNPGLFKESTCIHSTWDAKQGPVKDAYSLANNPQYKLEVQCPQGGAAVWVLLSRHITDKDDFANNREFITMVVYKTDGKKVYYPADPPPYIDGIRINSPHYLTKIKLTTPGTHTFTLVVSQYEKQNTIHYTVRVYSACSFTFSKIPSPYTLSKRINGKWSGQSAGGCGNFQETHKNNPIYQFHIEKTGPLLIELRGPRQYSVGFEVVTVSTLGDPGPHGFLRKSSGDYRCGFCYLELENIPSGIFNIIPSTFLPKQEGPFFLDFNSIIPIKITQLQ
UniProt O43683: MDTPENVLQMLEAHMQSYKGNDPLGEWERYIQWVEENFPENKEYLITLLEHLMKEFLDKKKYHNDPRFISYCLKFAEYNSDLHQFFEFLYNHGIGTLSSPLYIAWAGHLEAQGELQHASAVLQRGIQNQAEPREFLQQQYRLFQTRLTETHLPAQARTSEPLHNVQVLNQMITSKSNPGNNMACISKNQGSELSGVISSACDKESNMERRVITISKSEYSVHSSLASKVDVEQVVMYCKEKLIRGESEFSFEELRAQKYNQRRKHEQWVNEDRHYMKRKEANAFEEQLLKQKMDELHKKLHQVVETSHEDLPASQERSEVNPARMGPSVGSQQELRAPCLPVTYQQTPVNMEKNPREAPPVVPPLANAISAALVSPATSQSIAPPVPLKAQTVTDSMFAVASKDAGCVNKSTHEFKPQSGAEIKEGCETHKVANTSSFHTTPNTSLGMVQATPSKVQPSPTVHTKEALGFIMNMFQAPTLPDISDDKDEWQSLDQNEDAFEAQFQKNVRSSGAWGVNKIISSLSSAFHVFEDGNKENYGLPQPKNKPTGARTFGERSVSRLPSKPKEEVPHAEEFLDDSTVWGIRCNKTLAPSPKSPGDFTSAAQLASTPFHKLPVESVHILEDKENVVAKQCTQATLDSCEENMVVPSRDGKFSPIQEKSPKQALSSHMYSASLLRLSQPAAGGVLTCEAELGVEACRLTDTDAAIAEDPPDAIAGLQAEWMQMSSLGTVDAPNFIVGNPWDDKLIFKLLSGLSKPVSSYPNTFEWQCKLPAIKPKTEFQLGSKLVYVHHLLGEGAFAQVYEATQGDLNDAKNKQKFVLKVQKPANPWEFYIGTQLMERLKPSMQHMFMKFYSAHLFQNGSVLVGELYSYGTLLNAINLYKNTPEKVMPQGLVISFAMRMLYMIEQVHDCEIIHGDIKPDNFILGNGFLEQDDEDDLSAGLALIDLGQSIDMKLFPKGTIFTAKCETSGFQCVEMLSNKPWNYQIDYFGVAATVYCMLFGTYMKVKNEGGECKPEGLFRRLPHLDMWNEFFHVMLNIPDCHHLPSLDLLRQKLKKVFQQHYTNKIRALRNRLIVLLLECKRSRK
UniProt Q8N8R5: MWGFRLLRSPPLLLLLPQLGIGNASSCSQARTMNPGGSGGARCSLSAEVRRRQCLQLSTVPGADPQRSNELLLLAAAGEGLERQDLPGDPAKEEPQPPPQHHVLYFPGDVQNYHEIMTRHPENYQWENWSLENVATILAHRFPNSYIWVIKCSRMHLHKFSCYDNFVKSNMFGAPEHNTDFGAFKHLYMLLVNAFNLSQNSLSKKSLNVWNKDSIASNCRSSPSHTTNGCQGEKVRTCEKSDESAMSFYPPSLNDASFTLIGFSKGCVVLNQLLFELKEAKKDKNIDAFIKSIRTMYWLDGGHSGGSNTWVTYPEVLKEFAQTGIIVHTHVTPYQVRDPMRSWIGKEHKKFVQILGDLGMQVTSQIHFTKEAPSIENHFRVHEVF

filanesib = compound: CON(C)C(=O)N1N=C(c2cc(F)ccc2F)S[C@@]1(CCCN)c1ccccc1 [filanesib]
Summary of the method: as §1

zotarolimus = compound: CO[C@H]1C[C@@H]2CC[C@@H](C)[C@@](O)(O2)C(=O)C(=O)N2CCCC[C@H]2C(=O)O[C@H]([C@H](C)C[C@@H]2CC[C@H](n3cnnn3)[C@H](OC)C2)CC(=O)[C@H](C)/C=C(\C)[C@@H](O)[C@@H](OC)C(=O)[C@H](C)C[C@H](C)/C=C/C=C/C=C/1C [zotarolimus]
Summary of the method: as §1

idasanutlin = compound: COc1cc(C(=O)O)ccc1NC(=O)[C@@H]1N[C@@H](CC(C)(C)C)[C@](C#N)(c2ccc(Cl)cc2F)[C@H]1c1cccc(Cl)c1F [idasanutlin]
Summary of the method: as §1

alisertib = compound: COc1cc(Nc2ncc3c(n2)-c2ccc(Cl)cc2C(c2c(F)cccc2OC)=NC3)ccc1C(=O)O [alisertib]
Summary of the method: as §1

[2] = compound: COc1cc2nc(-c3cc(F)ccc3O)nc(N[C@@H]3CNC[C@H]3C(C)(C)O)c2cc1OC
Summary of the method: as §1

gefitinib = compound: COc1cc2ncnc(Nc3ccc(F)c(Cl)c3)c2cc1OCCCN1CCOCC1 [gefitinib]
Summary of the method: as §1

[3] = compound: COc1cccc2cc(-c3nc([C@H]4CC[C@H](C(=O)O)CC4)n4ncnc(N)c34)[nH]c12
Summary of the method: as §1

lapatinib = compound: CS(=O)(=O)CCNCc1ccc(-c2ccc3ncnc(Nc4ccc(OCc5cccc(F)c5)c(Cl)c4)c3c2)o1 [lapatinib]
Summary of the method: as §1

pictilisib = compound: CS(=O)(=O)N1CCN(Cc2cc3nc(-c4cccc5[nH]ncc45)nc(N4CCOCC4)c3s2)CC1 [pictilisib]
Summary of the method: as §1

[4] = compound: CS(=O)(=O)c1ccc(-c2cnc(N)c(C(=O)Nc3ccccc3)n2)cc1
Summary of the method: as §1

crizotinib = compound: C[C@@H](Oc1cc(-c2cnn(C3CCNCC3)c2)cnc1N)c1c(Cl)ccc(F)c1Cl [crizotinib]
Summary of the method: as §1

[5] = compound: C[C@@H]1COCCN1C2=NC(=NC(=C2)C3(CC3)S(=O)(=O)C)C4=C5C=CNC5=CC=C4
Summary of the method: as §1

[6] = compound: C[C@H](C1=CC=C(C=C1)C(=O)NC2=C3C=CNC3=NC=C2)N
Summary of the method: as §1

duvelisib = compound: C[C@H](Nc1ncnc2nc[nH]c12)c1cc2cccc(Cl)c2c(=O)n1-c1ccccc1 [duvelisib]
Summary of the method: as §1

gandotinib = compound: Cc1cc(Nc2cc(CN3CCOCC3)c3nc(C)c(Cc4ccc(Cl)cc4F)n3n2)n[nH]1 [gandotinib]
Summary of the method: as §1

tozasertib = compound: Cc1cc(Nc2cc(N3CCN(C)CC3)nc(Sc3ccc(NC(=O)C4CC4)cc3)n2)n[nH]1 [tozasertib]
Summary of the method: as §1

[7] = compound: Cc1cc(SCc2sc(-c3ccc(C(F)(F)F)cc3)nc2C)ccc1OCC(=O)O
Summary of the method: as §1

doramapimod = compound: Cc1ccc(-n2nc(C(C)(C)C)cc2NC(=O)Nc2ccc(OCCN3CCOCC3)c3ccccc23)cc1 [doramapimod]
Summary of the method: as §1

ispinesib = compound: Cc1ccc(C(=O)N(CCCN)[C@@H](c2nc3cc(Cl)ccc3c(=O)n2Cc2ccccc2)C(C)C)cc1 [ispinesib]
Summary of the method: as §1

Measured: log2 fold change

CAPNS1 (UniProt P04632)
inactive: [1] -0.063 | filanesib -0.017 | zotarolimus -0.026 | idasanutlin -0.039 | alisertib 0.017 | [2] -0.002 | gefitinib 0.023 | [3] 0.054 | lapatinib 0.012 | pictilisib 0.084 | [4] 0.013 | crizotinib 0.043 | [5] 0.056 | [6] -0.056 | duvelisib 0.04 | gandotinib 0.018 | tozasertib -0.011 | [7] -0.008 | doramapimod -0.022 | ispinesib 0.024

C1orf122 (UniProt Q6ZSJ8)
inactive: [1] 0.074 | filanesib -0.019 | zotarolimus 0.12 | idasanutlin -0.046 | alisertib -0.01 | [2] 0.072 | gefitinib 0.017 | [3] 0.027 | lapatinib -0.093 | pictilisib -0.156 | [4] 0.037 | crizotinib 0.109 | [5] 0.013 | [6] -0.286 | duvelisib 0.179 | gandotinib -0.001 | tozasertib -0.005 | [7] -0.088 | doramapimod -0.012 | ispinesib 0.082

C9orf78 (UniProt Q9NZ63)
inactive: [1] -0.005 | filanesib -0.022 | zotarolimus -0.023 | idasanutlin 0.006 | alisertib -0.008 | [2] -0.016 | gefitinib 0.003 | [3] 0.008 | lapatinib -0.02 | pictilisib -0.042 | [4] -0.023 | crizotinib 0.04 | [5] -0.026 | [6] -0.041 | duvelisib 0.005 | gandotinib 0.026 | tozasertib -0.01 | [7] -0.063 | doramapimod -0.016 | ispinesib 0.041

Reprinted at random: 2 entries already listed
C1orf122 (UniProt Q6ZSJ8)
inactive: [1] 0.074 | filanesib -0.019 | zotarolimus 0.12 | idasanutlin -0.046 | alisertib -0.01 | [2] 0.072 | gefitinib 0.017 | [3] 0.027 | lapatinib -0.093 | pictilisib -0.156 | [4] 0.037 | crizotinib 0.109 | [5] 0.013 | [6] -0.286 | duvelisib 0.179 | gandotinib -0.001 | tozasertib -0.005 | [7] -0.088 | doramapimod -0.012 | ispinesib 0.082

C9orf78 (UniProt Q9NZ63)
inactive: [1] -0.005 | filanesib -0.022 | zotarolimus -0.023 | idasanutlin 0.006 | alisertib -0.008 | [2] -0.016 | gefitinib 0.003 | [3] 0.008 | lapatinib -0.02 | pictilisib -0.042 | [4] -0.023 | crizotinib 0.04 | [5] -0.026 | [6] -0.041 | duvelisib 0.005 | gandotinib 0.026 | tozasertib -0.01 | [7] -0.063 | doramapimod -0.016 | ispinesib 0.041

(cont.)

C1orf109 (UniProt Q9NX04)
inactive: [1] -0.074 | filanesib -0.09 | zotarolimus -0.094 | idasanutlin -0.034 | alisertib -0.129 | [2] 0.048 | gefitinib 0.113 | [3] 0.008 | lapatinib -0.06 | pictilisib -0.074 | [4] -0.173 | crizotinib 0.072 | [5] -0.188 | [6] -0.003 | duvelisib 0.073 | gandotinib -0.075 | tozasertib -0.009 | [7] 0.002 | doramapimod -0.038 | ispinesib -0.009

CAPN2 (UniProt P17655)
inactive: [1] -0.043 | filanesib -0.096 | zotarolimus 0.016 | idasanutlin -0.024 | alisertib -0.111 | [2] -0.031 | gefitinib 0.01 | [3] 0.041 | lapatinib 0.006 | pictilisib 0.064 | [4] 0.023 | crizotinib -0.07 | [5] 0.015 | [6] -0.023 | duvelisib 0.045 | gandotinib -0.053 | tozasertib -0.059 | [7] -0.046 | doramapimod 0.007 | ispinesib 0.018

C20orf27 isoform 2 (UniProt Q9GZN8)
inactive: [1] 0.054 | filanesib -0.117 | zotarolimus 0.028 | idasanutlin -0.124 | alisertib -0.061 | [2] 0.036 | gefitinib -0.038 | [3] 0.081 | lapatinib 0.021 | pictilisib 0.174 | [4] 0.066 | crizotinib -0.066 | [5] 0.236 | [6] -0.028 | duvelisib 0.125 | gandotinib -0.089 | tozasertib -0.067 | [7] 0.081 | doramapimod -0.008 | ispinesib 0.118

CANT1 (UniProt Q8WVQ1)
inactive: [1] 0.01 | filanesib -0.052 | zotarolimus -0.061 | idasanutlin -0.036 | alisertib 0.215 | [2] 0.017 | gefitinib -0.01 | [3] 0.04 | lapatinib -0.019 | pictilisib 0.114 | [4] -0.01 | crizotinib -0.014 | [5] -0.001 | [6] 0.029 | duvelisib 0.036 | gandotinib -0.062 | tozasertib 0.005 | [7] -0.039 | doramapimod -0.037 | ispinesib -0.005

C2CD5 isoform 4 (UniProt Q86YS7)
inactive: [1] 0.043 | filanesib 0.145 | zotarolimus 0.019 | idasanutlin -0.083 | alisertib 0.045 | [2] 0.157 | gefitinib 0.037 | [3] 0.048 | lapatinib -0.004 | pictilisib 0.119 | [4] 0.025 | crizotinib -0.127 | [5] 0.052 | [6] -0.023 | duvelisib 0.016 | gandotinib 0.017 | tozasertib -0.012 | [7] 0.077 | doramapimod -0.02 | ispinesib -0.018

C1orf52 (UniProt Q8N6N3)
inactive: [1] 0.024 | filanesib -0.052 | zotarolimus -0.059 | idasanutlin 0.022 | alisertib -0.014 | [2] -0.053 | gefitinib 0.006 | [3] 0.03 | lapatinib 0.012 | pictilisib -0.033 | [4] -0.01 | crizotinib 0.048 | [5] -0.018 | [6] 0.03 | duvelisib 0.041 | gandotinib 0.049 | tozasertib -0.055 | [7] -0.075 | doramapimod -0.023 | ispinesib -0.013

CAPZA1 (UniProt P52907)
inactive: [1] 0.039 | filanesib 0.006 | zotarolimus 0.036 | idasanutlin -0.04 | alisertib -0.063 | [2] 0.02 | gefitinib -0.022 | [3] 0.029 | lapatinib -0.017 | pictilisib 0.027 | [4] 0 | crizotinib 0.025 | [5] 0.064 | [6] -0.057 | duvelisib 0.03 | gandotinib 0.022 | tozasertib 0.022 | [7] 0.037 | doramapimod -0.019 | ispinesib 0.053

CAND2 (UniProt O75155)
inactive: [1] -0.169 | filanesib -0.036 | zotarolimus -0.007 | idasanutlin 0.083 | alisertib -0.12 | [2] 0.024 | gefitinib 0.01 | [3] 0.014 | lapatinib 0.012 | pictilisib -0.006 | [4] 0.034 | crizotinib 0.031 | [5] 0.068 | [6] -0.028 | duvelisib 0.001 | gandotinib 0.008 | tozasertib -0.045 | [7] -0.03 | doramapimod 0.101 | ispinesib -0.01

CAMLG (UniProt P49069)
inactive: [1] -0.008 | filanesib 0.038 | zotarolimus -0.006 | idasanutlin -0.029 | alisertib -0.088 | [2] -0.052 | gefitinib 0.021 | [3] 0.073 | lapatinib -0.036 | pictilisib 0.077 | [4] -0.027 | crizotinib -0.006 | [5] 0.044 | [6] -0.049 | duvelisib 0.023 | gandotinib 0.049 | tozasertib -0.035 | [7] 0.028 | doramapimod -0.012 | ispinesib 0.018

CAPN7 (UniProt Q9Y6W3)
inactive: [1] 0.066 | filanesib -0.104 | zotarolimus 0.049 | idasanutlin 0.004 | alisertib 0.024 | [2] -0.025 | gefitinib 0.014 | [3] 0.015 | lapatinib 0.001 | pictilisib -0.026 | [4] 0.017 | crizotinib -0.091 | [5] 0.031 | [6] -0.006 | duvelisib 0.021 | gandotinib -0.021 | tozasertib -0.01 | [7] 0.044 | doramapimod 0.006 | ispinesib -0.055

BUB1 (UniProt O43683)
inactive: [1] -0.174 | filanesib 0.013 | zotarolimus -0.123 | idasanutlin -0.09 | alisertib -0.023 | [2] 0.167 | gefitinib 0.044 | [3] 0.056 | lapatinib -0.182 | pictilisib 0.185 | [4] 0.008 | crizotinib -0.196 | [5] 0.098 | [6] 0.163 | duvelisib 0.157 | gandotinib -0.107 | tozasertib -0.107 | [7] -0.047 | doramapimod 0.082 | ispinesib -0.218

C2orf69 (UniProt Q8N8R5)
inactive: [1] 0.006 | filanesib 0.027 | zotarolimus -0.004 | idasanutlin -0.141 | alisertib -0.029 | [2] 0.001 | gefitinib 0.076 | [3] 0.016 | lapatinib -0.058 | pictilisib -0.002 | [4] -0.121 | crizotinib 0.043 | [5] 0.035 | [6] -0.003 | duvelisib -0.011 | gandotinib -0.025 | tozasertib 0.015 | [7] 0.019 | doramapimod 0.012 | ispinesib 0.134

C18orf25 (UniProt Q96B23)
inactive: [1] -0.031 | filanesib 0.008 | zotarolimus 0.059 | idasanutlin -0.026 | alisertib -0.008 | [2] 0.022 | gefitinib 0.059 | [3] 0.034 | lapatinib 0.005 | pictilisib 0.01 | [4] 0.011 | crizotinib 0.003 | [5] 0.045 | [6] -0.046 | duvelisib -0.086 | gandotinib -0.014 | tozasertib -0.01 | [7] -0.111 | doramapimod -0.02 | ispinesib 0
